Source: patent publication US20190161756, “Anti-Immunoglobulin G Aptamers and Uses Thereof” (Laboratoire Francais du Fractionnement et des …, published 2019)
The exact form of at least one protein or probe is not confirmed. For part of these data: Negatives hold for the conditions tested. For part of these data: A weaker result is weaker than the reference pair of the same experiment.

What was measured:
[1] = tested on: Human polyclonal IgG (plasma) (Homo sapiens); experiment: SPR; conditions: purified native protein, label: biotin, single-stranded DNA
[2] = tested on: IgG1 (plasma IgG sub-class) (Homo sapiens); experiment: SPR; conditions: pH 5.5, purified native protein, single-stranded DNA
[3] = tested on: IgG2 (plasma IgG sub-class) (Homo sapiens); experiment: SPR; conditions: purified native protein, single-stranded DNA
[4] = tested on: IgG3 (plasma IgG sub-class) (Homo sapiens); experiment: SPR; conditions: pH 5.5, purified native protein, label: biotin, single-stranded DNA
[5] = tested on: Human polyclonal IgG (plasma) (Homo sapiens); experiment: binding assay; conditions: affinity chromatography, 5 mM MgCl2 pH 5.5, eluted pH 7.4, most plasma contaminants not retained, purified native protein, single-stranded DNA
[6] = 5' biotin-triethylene glycol spacer, resistant to 2 M NaCl, label: biotin
[7] = 5' biotin-triethylene glycol spacer, pH 5.5, resistant to 2 M NaCl, label: biotin

## GGGTCAATGCCAGGTCTCAAGTTTGTGGGGCTGGGGTTCGGTCCTGGCACAAATTCGTATCGGCTCGCAAGCAGTC [A6-4]
[1]; 5' biotin-triethylene glycol spacer, IgG 200 nM, MESBS pH 5.5 with or without 5 mM Mg2+
  binding result: binds
[2]; [6]
  binding result: binds
[3]; [7]
  binding result: binds
[4]; 5' biotin-triethylene glycol spacer, resistant to 2 M NaCl
  binding result: binds

## AAGTTTGTGGGGCTGGGGTTCGGTCCTGGCACAAATTCGT [A6-4 core]
[5]; 5' amino-C6 spacer, IgG subclass distribution retained, variant of A6-4
  binding result: binds

## GGGTCAATGCCAGGTCTCCACGGTATAGTCTCGCCCAGTGCCCTTTGTTGGACTTCCTATCGGCTCGCAAGCAGTC [A6-8]
[1]; 5' biotin-triethylene glycol spacer, IgG 200 nM, pH 5.5, resistant to 2 M NaCl, released at pH 7.4
  binding result: binds
[2]; [6]
  binding result: binds
[3]; [7]
  binding result: binds
[4]; 5' biotin-triethylene glycol spacer, complex less resistant to 2 M NaCl
  binding result: binds

## GGGTCAATGCCAGGTCTCGACTATTCCTCCGGCCTCTTCCCTAATCAGTGGCATCTCTATCGGCTCGCAAGCAGTC [A6-3]
[2]; 5' biotin-triethylene glycol spacer, slower association than IgG2/IgG4, eluted by 2 M NaCl, label: biotin
  binding result: binds more weakly
[3]; 5' biotin-triethylene glycol spacer, label: biotin
  binding result: binds
[4]; 5' biotin-triethylene glycol spacer, slower association than IgG2/IgG4, eluted by 2 M NaCl
  binding result: binds more weakly

## GGGTCAATGCCAGGTCTCCCCAGCCTCATCTCACGGCATAGTCTCGCCACACTGGAAATCGGCTCGCAAGCAGTC [A6-2]
[1]; 5' biotin-triethylene glycol spacer (SPR), 5' amino-C6 spacer and 3' idT (chromatography), IgG 200 nM, 50 mM MES 150 mM NaCl pH 5.5, resistant to 2 M NaCl, released at pH 7.4, highest binding at pH 5.30
  binding result: binds
[1]; 5' biotin-triethylene glycol spacer (SPR), 5' amino-C6 spacer and 3' idT (chromatography), no significant binding above pH 6.0
  binding result: no binding
[2]; 5' biotin-triethylene glycol spacer (SPR), 5' amino-C6 spacer and 3' idT (chromatography), resistant to 2 M NaCl, label: …
  binding result: binds
[3]; 5' biotin-triethylene glycol spacer (SPR), 5' amino-C6 spacer and 3' idT (chromatography), pH 5.5, resistant to 2 M NaCl, label: …
  binding result: binds
[4]; 5' biotin-triethylene glycol spacer (SPR), 5' amino-C6 spacer and 3' idT (chromatography), complex less resistant to 2 M NaCl
  binding result: binds
[5]; 5' biotin-triethylene glycol spacer (SPR), 5' amino-C6 spacer and 3' idT (chromatography), yield 82% purified IgG, 66% plasma, purity >95%, label: biotin
  binding result: binds
